Measured values published in the supplement of paper PMC4604168 (melanoma cell lines).
The list shows a part of the results. Repeats are few or missing, and single values can be far off.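 Cells were imaged in 1,536-well plates, and nuclei stained with an antibody against cleaved PARP were counted against all DNA-stained nuclei to give the apoptosis fraction. Screening doses were chosen to leave most cells alive, and resting and induced cleaved-PARP levels differ strongly between cell lines.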

Assays:
Assay in all cases: cleaved PARP positive nuclei fraction relative to DMSO control; melanoma cells; higher = more apoptosis
Details in all cases: library dose: low library concentration; 72 h
[1] = tested on: CBRC034 (line from a melanoma biopsy)
[2] = tested on: COLO792
[3] = tested on: COLO800
[4] = tested on: COLO829
[5] = tested on: G361
[6] = tested on: IPC-298
[7] = tested on: IST-MEL1
[8] = tested on: LB2518-MEL
[9] = tested on: LOXIMVI
[10] = tested on: MEL-HO

| SMILES | cleaved PARP positive nuclei fraction [1] | cleaved PARP positive nuclei fraction [2] | cleaved PARP positive nuclei fraction [3] | cleaved PARP positive nuclei fraction [4] | cleaved PARP positive nuclei fraction [5] | cleaved PARP positive nuclei fraction [6] | cleaved PARP positive nuclei fraction [7] | cleaved PARP positive nuclei fraction [8] | cleaved PARP positive nuclei fraction [9] | cleaved PARP positive nuclei fraction [10] |
| --- | --- | --- | --- | --- | --- | --- | --- | --- | --- | --- |
| CCCCCCCCc1ccc(CCC(N)(CO)CO)cc1 [fingolimod] + Cc1nc(Nc2ncc(C(=O)Nc3c(C)cccc3Cl)s2)cc(N2CCN(CCO)CC2)n1 [dasatanib] (first compound 2 µM, partner dose 0.004 µM) | 288% | 95.6% | 172% | 170% | 99.5% | 29.2% | 65.9% | 57.3% | 41.6% | 177% |
| Cn1cnc2c(F)c(Nc3ccc(Br)cc3Cl)c(C(=O)NOCCO)cc21 [selumetinib] + C[C@]1(c2nc3c(C(N)=O)cccc3[nH]2)CCCN1 [Veliparib] (first compound 0.015 µM, partner dose 1.4 µM) | 114% | 81.1% | 38.6% | 102% | 74.7% | 58.2% | 90.2% | 101% | 120% | 246% |
| NC(=O)c1ccc(N(C(N)=O)c2c(F)cccc2F)nc1-c1ccc(F)cc1F + CC(C)C[C@H](NC(=O)[C@H](Cc1ccccc1)NC(=O)c1cnccn1)B(O)O [Bortezomib] (first compound 0.4 µM, partner dose 0.001 µM) | 59.9% | 64.5% | 52.2% | 245% | 599% | 90.2% | 65.5% | 153% | 129% | 77.3% |
| CC1(C)CCC(c2ccc(Cl)cc2)=C(CN2CCN(c3ccc(C(=O)NS(=O)(=O)c4ccc(N[C@H](CCN5CCOCC5)CSc5ccccc5)c(S(=O)(=O)C(F)(F)F)c4)cc3)CC2)C1 + Cn1sc(=O)n(Cc2ccccc2)c1=O [TDZD-8] (first compound 0.4 µM, partner dose 0.4 µM) | 161% | 401% | 171% | 103% | 121% | 85.8% | 95.5% | 169% | 151% | 98.7% |
| COc1ccc(C2=N[C@@H](c3ccc(Cl)cc3)[C@@H](c3ccc(Cl)cc3)N2C(=O)N2CCNC(=O)C2)c(OC(C)C)c1 [Nutlin-3] + Cn1c(=O)n(-c2ccc(C(C)(C)C#N)cc2)c2c3cc(-c4cnc5ccccc5c4)ccc3ncc21 [NVP-BEZ235] (first compound 0.1 µM, partner dose 0.004 µM) | 77.9% | 149% | 25.9% | 74.5% | 99.8% | 45.2% | 71.9% | 102% | 66.5% | 26.5% |
| NC(=O)c1ccc(N(C(N)=O)c2c(F)cccc2F)nc1-c1ccc(F)cc1F + Nc1ncn([C@H]2C[C@H](O)[C@@H](CO)O2)c(=O)n1 [decitabine] (first compound 0.4 µM, partner dose 0.1 µM) | 29.6% | 137% | 75.4% | 109% | 110% | 78.7% | 150% | 62.6% | 57.1% | 213% |
| CC1(C)CCC(c2ccc(Cl)cc2)=C(CN2CCN(c3ccc(C(=O)NS(=O)(=O)c4ccc(N[C@H](CCN5CCOCC5)CSc5ccccc5)c(S(=O)(=O)C(F)(F)F)c4)cc3)CC2)C1 + CCCCCCCCc1ccc(CCC(N)(CO)CO)cc1 [fingolimod] (first compound 0.4 µM, partner dose 2 µM) | 115% | 294% | 278% | 61.2% | 129% | 500% | 320% | 52.1% | 251% | 417% |
| CC(=O)O[C@@]12CO[C@@H]1C[C@H](O)[C@@]1(C)C(=O)[C@H](O)C3=C(C)[C@@H](OC(=O)[C@H](O)[C@@H](NC(=O)OC(C)(C)C)c4ccccc4)C[C@@](O)([C@@H](OC(=O)c4ccccc4)[C@H]21)C3(C)C [Docetaxel] + CC(=O)c1c(C)c2cnc(Nc3ccc(N4CCNCC4)cn3)nc2n(C2CCCC2)c1=O [palbociclib] (first compound 0.0001 µM, partner dose 0.04 µM) | 143% | 241% | 275% | 166% | 219% | 437% | 284% | 484% | 86.4% | 182% |
| NC1(c2ccc(-c3nc4ccn5c(=O)[nH]nc5c4cc3-c3ccccc3)cc2)CCC1 + CC(C)C[C@H](NC(=O)[C@H](Cc1ccccc1)NC(=O)c1cnccn1)B(O)O [Bortezomib] (first compound 0.4 µM, partner dose 0.001 µM) | 46.4% | 164% | 118% | 110% | 294% | 95.4% | 100% | 148% | 152% | 144% |
| Cn1sc(=O)n(Cc2ccccc2)c1=O + Nc1nc(F)nc2c1ncn2[C@@H]1O[C@H](CO)[C@@H](O)[C@@H]1O [fludarabine] (first compound 0.4 µM, partner dose 0.2 µM) | 97.1% | 42.4% | 152% | 155% | 105% | 82.3% | 67.7% | 53.7% | 192% | 122% |
